PubChem BioAssay AID1508588 – Peter MacCallum Cancer Centre | 2020

- Screen: 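Which gene losses make BRAF-mutant melanoma cells more responsive to vemurafenib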 (primary screen)
- Cell system: human WM266.4 melanoma cells (BRAF V600 mutant)
- Knock-down reagent: siRNA pool against human genes, 40 nM
- Time to read-out: 96 h from transfection to read-out
- Challenge: vemurafenib 300 nM (about IC25), added 48 h after transfection, for 48 h; comparison arm got DMSO vehicle only
- Measurement: 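Ratios to non-targeting siRNA for cell gain, counted as DAPI nuclei after minus before drug and averaged over two replicates, and for absorbance-read medium lactate per cell; both binned into fold-change classes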
- Direction: cell gain with vemurafenib: higher = more cell gain than with non-targeting siRNA; lactate per cell with vemurafenib: higher = more lactate made per cell
- Call rule: 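a knock-down counts as enhancing when its fold-change classes with vehicle and with vemurafenib, taken together, show a stronger drug effect on cell gain or lactate per cell; exact class pairs not stated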
- Meaning of the calls: active = enhances vemurafenib effect; inactive = no enhancement seen
This is a random part of about 18,000 deposited reagents. In the full data, 790 (4.4%) are marked active. 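Calls rest on a combination of fold-change classes in drug and vehicle arms, not all shown here.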 Entries without a mark were called inactive.

ZNF280D | cell gain with vemurafenib = 0.79; lactate per cell with vemurafenib = 1.38
CLK3 | cell gain with vemurafenib = 0.42; lactate per cell with vemurafenib = 1.14
TMEM176A | cell gain with vemurafenib = 0.75; lactate per cell with vemurafenib = 0.85
GLT6D1 | cell gain with vemurafenib = 1.02; lactate per cell with vemurafenib = 0.9
TMEM132E | cell gain with vemurafenib = 0.52; lactate per cell with vemurafenib = 0.74
MTSS2 | cell gain with vemurafenib = 0.86; lactate per cell with vemurafenib = 0.7
ZNF607 | cell gain with vemurafenib = 0.51; lactate per cell with vemurafenib = 0.91
CCDC116 | cell gain with vemurafenib = 0.24; lactate per cell with vemurafenib = 2.15
SCARA3 | cell gain with vemurafenib = 0.26; lactate per cell with vemurafenib = 0.74
RBFA | cell gain with vemurafenib = 0.16; lactate per cell with vemurafenib = 1.23
GOLIM4 | cell gain with vemurafenib = 0.87; lactate per cell with vemurafenib = 1
CNN3 | cell gain with vemurafenib = 0.3; lactate per cell with vemurafenib = 0.94
POFUT2 | cell gain with vemurafenib = 0.79; lactate per cell with vemurafenib = 0.47
RANBP3L | cell gain with vemurafenib = 0.92; lactate per cell with vemurafenib = 0.42
KIFAP3 | cell gain with vemurafenib = 1.24; lactate per cell with vemurafenib = 0.56
CHRNG | cell gain with vemurafenib = 0.53; lactate per cell with vemurafenib = 0.88
SPANXN5 | cell gain with vemurafenib = 0.52; lactate per cell with vemurafenib = 1.68
SCTR | cell gain with vemurafenib = 0.59; lactate per cell with vemurafenib = 2.38
RIDA | cell gain with vemurafenib = 0.73; lactate per cell with vemurafenib = 0.67
BUB1B | cell gain with vemurafenib = 0.62; lactate per cell with vemurafenib = 0.72
PITRM1 | cell gain with vemurafenib = 0.87; lactate per cell with vemurafenib = 0.61
ANGPT1 | cell gain with vemurafenib = 0.42; lactate per cell with vemurafenib = 1.87
KRTAP17-1 | cell gain with vemurafenib = 1.02; lactate per cell with vemurafenib = 0.73
TTC39C | cell gain with vemurafenib = 0.79; lactate per cell with vemurafenib = 0.99
TMEM144 | cell gain with vemurafenib = 0.37 (active); lactate per cell with vemurafenib = 0.7
BICRAL | cell gain with vemurafenib = 0.81; lactate per cell with vemurafenib = 0.94
PPIAL4A | cell gain with vemurafenib = 1.11; lactate per cell with vemurafenib = 1
KLHL24 | cell gain with vemurafenib = 0.35; lactate per cell with vemurafenib = 0.54
ATP8B2 | cell gain with vemurafenib = 0.99; lactate per cell with vemurafenib = 0.59
ANKRD13A | cell gain with vemurafenib = 0.33; lactate per cell with vemurafenib = 1.42
TEX261 | cell gain with vemurafenib = 0.94; lactate per cell with vemurafenib = 0.88
ZNF429 | cell gain with vemurafenib = 0.88; lactate per cell with vemurafenib = 0.66
KIAA1217 | cell gain with vemurafenib = 0.82; lactate per cell with vemurafenib = 0.81
LEPROTL1 | cell gain with vemurafenib = 0.11; lactate per cell with vemurafenib = 1.25
GABARAPL1 | cell gain with vemurafenib = 0.61; lactate per cell with vemurafenib = 1.09
GARNL3 | cell gain with vemurafenib = 0.69; lactate per cell with vemurafenib = 0.48
MRPL27 | cell gain with vemurafenib = 0.81; lactate per cell with vemurafenib = 1.1
GPAT2 | cell gain with vemurafenib = 0.66; lactate per cell with vemurafenib = 0.89
GSDMC | cell gain with vemurafenib = 0.74; lactate per cell with vemurafenib = 1.1
MORF4 | cell gain with vemurafenib = 0.43; lactate per cell with vemurafenib = 1.12
